Results are given in words; binding and its absence hold for the method and conditions named. In cells and extracts the contact can be indirect. A yes stands for co-enrichment or nearness to the bait. Other partners may have been found.
How the values were obtained:
[1] = target: M28 protein, recombinant, affinity-tagged (Streptococcus pyogenes) (UniProt W0T1Y4); experiment: affinity purification with mass spectrometry; 20 μg affinity-tagged M protein on Strep-Tactin Sepharose beads, 100 μl pooled normal human plasma, 37°C 1 h, washed with ice-cold PBS, eluted with 5 mM biotin; DIA-MS, hits filtered against sfGFP (log2 enrichment >1, adjusted P 0.05); only the target purified
[2] = target: M49 protein, recombinant, affinity-tagged (Streptococcus pyogenes) (UniProt P16947); experiment: as above

Sequences of proteins named here, by UniProt entry; tags and fusion partners are left off. Residues count along the entry.
UniProt W0T1Y4, residues 42-358: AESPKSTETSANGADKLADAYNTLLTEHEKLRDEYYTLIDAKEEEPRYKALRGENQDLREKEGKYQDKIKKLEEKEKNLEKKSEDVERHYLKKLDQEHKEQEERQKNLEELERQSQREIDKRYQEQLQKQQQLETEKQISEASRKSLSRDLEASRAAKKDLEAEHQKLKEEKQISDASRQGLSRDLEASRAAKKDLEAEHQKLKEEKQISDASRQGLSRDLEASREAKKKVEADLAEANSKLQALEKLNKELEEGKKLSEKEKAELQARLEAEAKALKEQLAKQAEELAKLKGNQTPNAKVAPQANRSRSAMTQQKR
UniProt P16947, residues 42-354: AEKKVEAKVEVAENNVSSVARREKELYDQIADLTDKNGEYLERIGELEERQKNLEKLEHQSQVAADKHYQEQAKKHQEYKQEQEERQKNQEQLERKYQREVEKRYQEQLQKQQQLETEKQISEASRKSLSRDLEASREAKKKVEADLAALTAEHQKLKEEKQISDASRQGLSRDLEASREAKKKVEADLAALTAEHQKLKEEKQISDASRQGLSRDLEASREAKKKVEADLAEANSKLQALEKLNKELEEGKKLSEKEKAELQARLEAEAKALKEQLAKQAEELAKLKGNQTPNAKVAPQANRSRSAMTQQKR

B1: vitamin K-dependent protein S (protein, UniProt P07225 42-676)
chain: ANSLLEETKQGNLERECIEELCNKEEAREVFENDPETDYFYPKYLVCLRSFQTGLFTAARQSTNAYPDLRSCVNAIPDQCSPLPCNEDGYMSCKDGKASFTCTCKPGWQGEKCEFDINECKDPSNINGGCSQICDNTPGSYHCSCKNGFVMLSNKKDCKDVDECSLKPSICGTAVCKNIPGDFECECPEGYRYNLKSKSCEDIDECSENMCAQLCVNYPGGYTCYCDGKKGFKLAQDQKSCEVVSVCLPLNLDTKYELLYLAEQFAGVVLYLKFRLPEISRFSAEFDFRTYDSEGVILYAESIDHSAWLLIALRGGKIEVQLKNEHTSKITTGGDVINNGLWNMVSVEELEHSISIKIAKEAVMDINKPGPLFKPENGLLETKVYFAGFPRKVESELIKPINPRLDGCIRSWNLMKQGASGIKEIIQEKQNKHCLVTVEKGSYYPGSGIAQFHIDYNNVSSAEGWHVNVTLNIRPSTGTGVMLALVSGNNTVPFAVSLVDSTSEKSQDILLSVENTVIYRIQALSLCSDQQSHLEFRVNRNNLELSTPLKIETISHEDLQRQLAVLDKAMKAKVATYLGGLPDVPFSATPVNAFYNGCMEVNINGVQLDLDEAISKHNDIRAHSCPSVWKKTKNS
- binding [1]: binds
- binding [2]: binds

From paper PMC8547449
